No constants are given. Whether binding was seen depends on the method and setting. In cells and extracts the contact can be indirect. Some entries that bind do so weakly or less than the wild type. Where a sequence is shown, tags or fusion partners need not be part of it.
Biological target: YAP1-Flag (human) (UniProt P46937)
Assay: co-IP; HEK-293T, HGC-27 and NCI-N87 cells co-transfected with the indicated plasmids, proteins extracted after 72 h, lysed with 1% NP-40; lysates incubated with anti-FLAG M2 magnetic beads, anti-Myc-tag magnetic beads or mouse IgG1 isotype control beads at 4 °C overnight; washed with 0.05% NP-40 thrice; Western blot

- binding: binds
B1: SETD7-Myc (enzyme, UniProt Q8WTS6 1-366)
chain: MDSDDEMVEEAVEGHLDDDGLPHGFCTVTYSSTDRFEGNFVHGEKNGRGKFFFFDGSTLEGYYVDDALQGQGVYTYEDGGVLQGTYVDGELNGPAQEYDTDGRLIFKGQYKDNIRHGVCWIYYPDGGSLVGEVNEDGEMTGEKIAYVYPDERTALYGKFIDGEMIEGKLATLMSTEEGRPHFELMPGNSVYHFDKSTSSCISTNALLPDPYESERVYVAESLISSAGEGLFSKVAVGPNTVMSFYNGVRITHQEVDSRDWALNGNTLSLDEETVIDVPEPYNHVSKYCASLGHKANHSFTPNCIYDMFVHPRFGPIKCIRTLRAVEADEELTVAYGYDHSPPGKSGPEAPEWYQVELKAFQATQQK
